Test results taken from US20110223178A1.
These are yes or no findings as the source states them, for the method shown. Some binding calls cover weakened binding; strength is not graded here.

By UniProt entry, the sequences of proteins in these tests, tags left out. Where a name states a change or a piece, a line headed by the entry shows the natural chain unless it says otherwise.
UniProt P78556: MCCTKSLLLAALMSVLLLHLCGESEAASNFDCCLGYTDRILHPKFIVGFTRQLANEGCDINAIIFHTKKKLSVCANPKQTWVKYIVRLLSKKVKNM

Target: Chemokine beta-4 (CK-β4) (human) (UniProt P78556)
Test: phage display selection of scFvs on CK-β4

B1: scFv F081C09 (scFv)
scFv: QVQLVQSGAEVKKPGSSVRVSCKASGGSFSDYAIHWVRQAPGQGLEWMGGIIPIFGTANYAQKFQGRVTITADESTSTAYMELSSLRSEDTAVYYCAREAQYDDAFDIWGQRTMVTVSSGGGGSGGGGSGGGGSQSVLTQPPSVSAAPGQKVTISCSGSTSNIGNNYVSWYQQHPGKAPKLMIYDVSKRPSGVPDRFSGSKSGNSASLDISGLQSEDEADYYCAAWDDSLSEFLFGTGTKLTVLG
In the case of B1, the binding is reported as “binds”.

B2: scFv F076F10 (scFv)
scFv: EVQLVQSGAEVKKPGSSVKVFCKTSGGTFSSYAFGWVRQRPGQGLEWMGGIIPNFDAANYAQKFQDTVAFTADTSTNTLYLELSSLTSDDTAVYYCAREVGVHASGLGAFDIWGRGTLVTVSSGGGGSGGGGSGGGGSAQSVLTQPPSVSGAPRQRVTISCSGSSSNIGDNVVNWYQQLPGKAPKLLIYYDDLLPSGVSDRFSGSKSGTSASLAISGLQSEDEADYFCAAWDDSLDAYVFGTRTKVTVLG
For B2, the binding was “binds”.

B3: scFv F002D07 (scFv)
scFv: QVQLVQSGGGVVQPGRSLRLSCAASGFIFSSYGMHWVRQAPGKGLEWVAGIFYDGGNKYYADSVKGRFTISRDNSKNTLYLQMNSLRAEDTAVYYCARDRGYYYMDVWGKGTTVTVSSGGGGSGGGGSGGGGSQSVLTQPPSVSGAPGQRVTISCTGRSSNIGAGHDVHWYQQLPGTAPKLLIYGDSNRPSGVPDRFSGSRSGTSASLAITGLQAEDEADYYCQSYDSSLRGSVFGGGTKVTVLG
With B3 the binding was “binds”.

B4: scFv F076C06 (scFv)
scFv: QVQLVQSGPEVKKPGSSVKVSCRASGGTFSTYAFSWVRQAPGQGLEWMGGIIPVFETPIYAQKLQGRLTITADTSTDTAYMELSNLRSGDTAVYYCAREWGDYYSSVSSGALHYWGRGTLVTVSSGGGGSGGGGSGGGGSAQAVLTQPSSASGTPGQRVTISCSGSSSNIGNNAVNWYQQLPGTAPKLLIYNNNQWPSGVPDRFSGSKSGTSASLAVSGLQSEDEADYYCAAWDDSLNGYVFGTGTQLTVLS
In the case of B4, the binding is reported as “binds”.

B5: scFv F003B07 (scFv)
scFv: EVQLVQSGAEVKKPGSSVKVSCKASGDTFDSYAFSWVRQAPGQGLEWMGGIIPMFDTPIYAQKFQGKVTITADTSTSTVYMKLSSLRSGDTAIYYCAREWGGYYSSESSGALQYWGRGTLVTVSSGGGGSGGGGSGGGGSAQAVLTQPSSVSGAPGQRVTISCTGSRSNIGADYDVQWYQQLPGTAPKLLIYGNNNRPSGVPDRFSGSKSDRSASLAITGLRAEDESDYYCQSYDSSLSVWVFGGGTKLTVLG
In the case of B5, the binding is reported as “binds”.

B6: scFv F003F01 (scFv)
scFv: EVQLVQSGAEVRKPASSVKVSCKTSGGSFNDYSFNWVRQAPGQGLEWMGSIIPVFDMADYGQNFQGRLTITADESTTTAYMELSDLTPMDTAIYYCARVAMVGATHFDIWGQGTLVTVSSGGGGSGGGGSGGGGSAQSVLTQPPSASGTPGQRVTISCSGGSSNIGSNPVNWYQQVPGTAPKLLIYLSDQRPAGVPDRFSGSKSGTSASLAISGLQSEDEADYYCSTWDDSLNDPVVFGGGTKVTVLG
In the case of B6, the binding is reported as “binds”.

B7: scFv F002G03 (scFv)
scFv: QVQLVQSGAEVKKPGSSVKVSCKASGGTFNRYAISWVRQAPGQGLEWMGGIIPMFATPIYSQKFQDRVTITADESTSTAYMELSSLRSEDTAVYYCARDRTDYYDTDGYQSPDSWGKGTLVTVSSGGGGPGGGGSGGGGSDIQMTQSPSTLSASIGDRVTITCRASQGINNYLAWYQQKPGRAPKLLIYAASSLQSGVPSRFSGSGSGTDFTLTISSLQPEDFATYYCLQDSDYPLTFGGGTKLEIKR
In the case of B7, the binding is reported as “binds”.

B8: scFv F003F09 (scFv)
scFv: EVQLVQSGAEVRKPGSSVKVSCKASGDTFNNFAISWVRQAPGHGLEWVGGIIPVFNTADYAQNFTGRVTISADKATKTVYMELRSLRYDDTAVYFCARTKIELDNDAFDIWGRGTTVTVSSGGGGGSGGGGSGGGGSALPVLTQPPSASGTPGQRVTISCSGSTSNIGSNAVVWYQQLPGAAPKLLIYSNDQRPSGVPDRFSGSRSGTSASLAISGLQSEDEADYYCAAWDDSRDGPWVFGGGTKVTVLG
In the case of B8, the binding is reported as “binds”.

B9: scFv F003G02 (scFv)
scFv: QVQLQQSGAEVKKPGSSVKVSCKASGGTFSSYAISWVRQAPGQGLEWMGGIIPTFGIADYAQKFQGRVTITADESTSTAYMELTGLRSEDTAMYYCARGQLERLGEYDYWGRGTMVTVSSGGGGSGGGGSGGGGSAQSVLTQPPSASGTPGQRVTISCSGSSSNIEINTVNWYKQLPGTAPKLLIYSDYQRPSGVPDRFSASKSGTSASLAISGLQSEDEADYYCATWDDSLNGPVFGGGTKVTVLG
For B9, the binding was “binds”.

B10: scFv F002C08 (scFv)
scFv: EVQLVESGAEVKKPGSSVKVSCKASGGTFSSYAISWVRQAPGQGLEWMGGIIPIFGTANYAQKFQGRVTITADESTSTAYMELSSLGSEDTAVYYCARESLTGDSELDLWGKGTLVTVSSGGGGSGGGGSGGGGSQSVLTQPPSVSAAPGQKVTISCSGSTSNIGNNYVSWYQQHPGKAPKLMIYDVSKRPSGVPDRFSGSKSGNSASLDISGLQSEDEADYYCAAWDDSLSEFLFGTGTKLTVLG
With B10 the binding was “binds”.

B11: scFv F002E03 (scFv)
scFv: EVQLVQSGAEVKKPGSSVKVSCKASGGTFSSYAISWVRQAPGQGLEWMGGIIPMFGAGNYAPKFQDRVTLTADESTSTAYMELSSLTSEDTAVYFCARDSTDFSGDSGLGMDVWGRGTMVTVSSGGGGPGGGGSGGGGSDIQMTQSPSFLSASVGDRVTITCRASQGINNYLAWYQQKPGRAPKLLIYAASSLQSGVPSRFSGSGSGTDFTLTISSLQPEDFATYYCLQDSDYPLTFGGGTKLEIKR
For B11, the binding was “binds”.

B12: scFv F076D02 (scFv)
scFv: QVQLVQSGAEVRKPGSSVKVSCKASGDTFNNFAISWVRQAPGHGLEWVGGIIPVFNTADYAQNFTGRVTISADKATKTVYMELRSLRYDDTAVYFCARTKIELDNDAFDIWGQGTMVTVSSGGGGSGGGGSGGGGSAQSVLTQPPSASGTPGQRVTISCSGTTSNIGSNSVSWYQKLPGTAPKLLIHSNNLRPSGVPDRFSGSKSGTSASLAISGLRSEDEADYYCAAWDDSLSGPVVFGGGTKVTVLG
In the case of B12, the binding is reported as “binds”.

B13: scFv F075G06 (scFv)
scFv: EVQLVQSGPEVKKPGSSVKVSCRASGGTFSTYAFSWVRQAPGQGLEWMGGIIPVFETPIYAQKLQGRLTITADTSTDTAYMELSNLRSGDTAVYYCAREWGDYYSSVSSGALHYWGQGTLVTVSSGGGGSGGGGSGGGGSAQSVVTQPPSASGTPGQRVTISCSGSRSNIGSNIVNWYQQLVGTAPKLLIYSDNQRPSGVPDRFSGSKSGTSASLAISGLQSEDEADYYCAAWDDSLNRYVFGTGTKVTVLG
For B13, the binding was “binds”.
